Results on four molecules are retold here after PMC4264851.

Experiment [1] concerns the target T1, Utp12-FLAG (S. cerevisiae) (UniProt Q12220).
T1 sequence: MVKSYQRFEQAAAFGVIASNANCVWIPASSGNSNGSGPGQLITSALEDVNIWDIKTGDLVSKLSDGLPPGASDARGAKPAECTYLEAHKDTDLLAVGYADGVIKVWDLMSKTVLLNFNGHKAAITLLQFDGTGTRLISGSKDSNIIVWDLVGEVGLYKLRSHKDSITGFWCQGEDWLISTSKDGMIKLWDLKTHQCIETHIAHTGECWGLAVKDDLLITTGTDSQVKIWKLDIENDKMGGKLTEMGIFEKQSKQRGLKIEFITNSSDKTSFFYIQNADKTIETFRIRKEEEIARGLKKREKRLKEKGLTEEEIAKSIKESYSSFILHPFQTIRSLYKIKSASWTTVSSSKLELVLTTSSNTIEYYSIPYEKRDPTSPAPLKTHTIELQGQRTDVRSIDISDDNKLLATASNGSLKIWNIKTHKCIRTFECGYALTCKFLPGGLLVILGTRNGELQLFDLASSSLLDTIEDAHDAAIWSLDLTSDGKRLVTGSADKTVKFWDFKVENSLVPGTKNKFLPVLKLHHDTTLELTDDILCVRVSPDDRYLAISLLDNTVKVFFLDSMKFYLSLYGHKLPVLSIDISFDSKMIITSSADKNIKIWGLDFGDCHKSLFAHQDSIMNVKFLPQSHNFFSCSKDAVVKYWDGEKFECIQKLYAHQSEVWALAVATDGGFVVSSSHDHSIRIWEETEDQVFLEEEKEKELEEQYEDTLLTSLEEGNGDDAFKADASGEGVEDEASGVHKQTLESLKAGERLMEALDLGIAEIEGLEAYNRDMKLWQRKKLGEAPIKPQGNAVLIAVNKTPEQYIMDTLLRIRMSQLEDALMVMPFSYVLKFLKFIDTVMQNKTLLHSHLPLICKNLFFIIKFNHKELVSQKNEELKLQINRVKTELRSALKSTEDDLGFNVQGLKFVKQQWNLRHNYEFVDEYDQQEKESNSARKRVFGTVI
Put plainly: affinity purification with mass spectrometry; Pwp2, Utp6-HA, Utp12-FLAG, Utp13, Utp18 and Utp21 co-expressed in SF21 cells (bacmid K1992); one-step, bait Utp12-FLAG on anti-FLAG affinity matrix, FLAG peptide elution; SDS-PAGE, Coomassie, MS of bands.

The target of experiment [2] is T2, Utp15-FLAG (S. cerevisiae) (UniProt Q04305).
T2 sequence: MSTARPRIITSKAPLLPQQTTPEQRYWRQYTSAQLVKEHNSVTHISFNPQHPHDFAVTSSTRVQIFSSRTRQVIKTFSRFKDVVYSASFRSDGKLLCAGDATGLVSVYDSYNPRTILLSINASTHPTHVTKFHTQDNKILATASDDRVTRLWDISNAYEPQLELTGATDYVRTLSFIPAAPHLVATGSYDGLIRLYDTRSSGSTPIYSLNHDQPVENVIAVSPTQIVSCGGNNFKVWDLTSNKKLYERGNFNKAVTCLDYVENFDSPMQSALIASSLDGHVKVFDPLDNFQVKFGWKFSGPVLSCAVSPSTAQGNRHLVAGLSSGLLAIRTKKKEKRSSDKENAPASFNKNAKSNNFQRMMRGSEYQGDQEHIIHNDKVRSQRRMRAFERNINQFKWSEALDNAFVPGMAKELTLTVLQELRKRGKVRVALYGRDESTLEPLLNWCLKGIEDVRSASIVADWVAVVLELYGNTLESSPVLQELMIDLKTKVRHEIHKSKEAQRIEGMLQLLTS
Put plainly: affinity purification with mass spectrometry; Utp4, Utp5, Utp8, Utp9, Utp10, Utp15-FLAG and Nan1-HA co-expressed in SF21 cells (bacmid K2000); one-step, bait Utp15-FLAG on anti-FLAG affinity matrix, lysate cleared by low-speed centrifugation, buffer A100+ (20 mM Tris-HCl pH 8, 100 mM KCl, 5 mM Mg(OAc)2, 0.5% Triton X-100, 0.1% Tween-20), 4°C, FLAG peptide elution; SDS-PAGE, Coomassie, MS of bands.

In a further experiment the target is T3, Nan1-HA (S. cerevisiae) (UniProt Q02931).
T3 sequence: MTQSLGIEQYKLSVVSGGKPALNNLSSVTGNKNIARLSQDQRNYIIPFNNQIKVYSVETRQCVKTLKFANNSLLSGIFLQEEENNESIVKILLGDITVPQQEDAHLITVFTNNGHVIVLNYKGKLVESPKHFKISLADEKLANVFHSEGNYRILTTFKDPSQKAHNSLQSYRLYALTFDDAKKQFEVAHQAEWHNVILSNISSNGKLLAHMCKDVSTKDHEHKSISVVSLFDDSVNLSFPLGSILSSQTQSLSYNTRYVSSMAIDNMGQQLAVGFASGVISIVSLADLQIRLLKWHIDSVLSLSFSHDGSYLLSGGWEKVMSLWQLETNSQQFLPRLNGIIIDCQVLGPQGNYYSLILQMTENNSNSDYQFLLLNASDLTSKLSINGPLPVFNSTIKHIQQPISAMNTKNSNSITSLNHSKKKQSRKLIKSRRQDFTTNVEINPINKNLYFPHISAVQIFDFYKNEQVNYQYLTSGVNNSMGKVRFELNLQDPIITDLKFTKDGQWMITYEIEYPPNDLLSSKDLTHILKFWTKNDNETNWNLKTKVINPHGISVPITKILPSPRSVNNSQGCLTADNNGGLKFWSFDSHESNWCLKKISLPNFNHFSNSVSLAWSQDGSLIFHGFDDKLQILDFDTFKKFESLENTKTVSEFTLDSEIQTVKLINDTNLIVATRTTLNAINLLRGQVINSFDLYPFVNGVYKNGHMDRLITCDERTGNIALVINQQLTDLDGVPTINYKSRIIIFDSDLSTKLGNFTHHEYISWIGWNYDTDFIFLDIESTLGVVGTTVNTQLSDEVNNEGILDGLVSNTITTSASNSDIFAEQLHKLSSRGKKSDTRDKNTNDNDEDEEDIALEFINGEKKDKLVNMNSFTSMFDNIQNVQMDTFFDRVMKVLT
As to the kind of experiment: affinity purification with mass spectrometry; bacmid K2000 (all seven tUTP candidates); two-step: anti-FLAG eluate (Utp15-FLAG) purified again on anti-HA affinity matrix with Nan1-HA as bait, HA peptide elution; SDS-PAGE, Coomassie, MS of bands.

Experiment [3] addresses T2, Utp15-FLAG (S. cerevisiae). As to the kind of experiment: affinity purification with mass spectrometry; bacmid K2123 (five pentamer proteins); two-step: IgG Sepharose/TEV eluate (Utp4-TAP) purified again on anti-FLAG affinity matrix with Utp15-FLAG as bait, FLAG peptide elution; SDS-PAGE, Coomassie, MS of bands.

No constants are given. Whether binding was seen depends on the method and setting. In cells and extracts the contact can be indirect. Here binding means that the protein was enriched with, or labelled near, the bait; the list need not be complete. Tags and fused reporters may be left off the sequences shown.

B1: Utp6-HA (protein, UniProt Q02354 1-440)
chain: MSKTRYYLEQCIPEMDDLVEKGLFTKNEVSLIMKKRTDFEHRLNSRGSSINDYIKYINYESNVNKLRAKRCKRILQVKKTNSLSDWSIQQRIGFIYQRGTNKFPQDLKFWAMYLNYMKARGNQTSYKKIHNIYNQLLKLHPTNVDIWISCAKYEYEVHANFKSCRNIFQNGLRFNPDVPKLWYEYVKFELNFITKLINRRKVMGLINEREQELDMQNEQKNNQAPDEEKSHLQVPSTGDSMKDKLNELPEADISVLGNAETNPALRGDIALTIFDVCMKTLGKHYINKHKGYYAISDSKMNIELNKETLNYLFSESLRYIKLFDEFLDLERDYLINHVLQFWKNDMYDLSLRKDLPELYLKTVMIDITLNIRYMPVEKLDIDQLQLSVKKYFAYISKLDSASVKSLKNEYRSYLQDNYLKKMNAEDDPRYKILDLIISKL
Turning to B1, the binding entry in experiment [1] is given as “binds”.

B2: Nan1-HA (protein, UniProt Q02931 1-896)
chain: T3 sequence
For B2, the binding result in experiment [2] is reported as “binds weakly”.

B3: Utp4 (protein, UniProt Q06679 1-776)
chain: MSSSLLSVLKEKSRSLKIRNKPVKMTSQERMIVHRCRFVDFTPATITSLAFSHKSNINKLTPSDLRLAIGRSNGNIEIWNPRNNWFQEMVIEGGKDRSIEGLCWSNVNGESLRLFSIGGSTVVTEWDLATGLPLRNYDCNSGVIWSISINDSQDKLSVGCDNGTVVLIDISGGPGVLEHDTILMRQEARVLTLAWKKDDFVIGGCSDGRIRIWSAQKNDENMGRLLHTMKVDKAKKESTLVWSVIYLPRTDQIASGDSTGSIKFWDFQFATLNQSFKAHDADVLCLTTDTDNNYVFSAGVDRKIFQFSQNTNKSQKNNRWVNSSNRLLHGNDIRAICAYQSKGADFLVSGGVEKTLVINSLTSFSNGNYRKMPTVEPYSKNVLVNKEQRLVVSWSESTVKIWTMGTDSSTEQNYKLVCKLTLKDDQNISTCSLSPDGQVLVVGRPSTTKVFHLQPVGNKLKVTKLDNDLLLRTSTKLVKFIDNSKIVICSCEDDVFIVDLESEEDEKPQEVELLEVTSTKSSIKVPYINRINHLEVDQNIAVISRGCGVVDILDLKARISKPLARLNNFITAVHINTSRKSVVVITADNKIYEFNMNLNSEAENEDSESVLTQWSKNNTDNLPKEWKTLKENCVGIFSDIENSSRLWFWGATWISRIDFDVDFPINKRRKQKKRTHEGLTITDESNFMNDEEDDEDDDIDMEISENLNVLLNQGNKIKSTDVQRNEESSGHFFFTDKYKPLLFVDLISSNELAIIERNPLTFHSKQKAFIQPKLVF
As for B3, the binding result in experiment [2] was “binds”; with Nan1-HA (S. cerevisiae), “binds weakly”.

B4: Utp4-TAP (protein, UniProt Q06679 1-776)
chain: B3 chain
As to B4, in experiment [3], the binding entry is “binds”.
